From US20260227398A1, “CD62L (L-SELECTIN) APTAMER AND ITS APPLICATION FOR T CELL ISOLATION” (University of Washington, published 2026)
At least one result comes from cells or an extract, where the contact may be indirect. For some assays here: Negatives hold for the conditions tested. For some assays here: The exact form of at least one protein or probe is not confirmed.

Key:
[1] = biological target: T1, L-selectin (CD62L) on J.RT3-T3.5 cells (Homo sapiens) (UniProt P14151); test: flow cytometry; conditions: protein on the cell surface, protein details: endogenous, J.RT3-T3.5 human T-ALL line, single-stranded DNA
T1 sequence: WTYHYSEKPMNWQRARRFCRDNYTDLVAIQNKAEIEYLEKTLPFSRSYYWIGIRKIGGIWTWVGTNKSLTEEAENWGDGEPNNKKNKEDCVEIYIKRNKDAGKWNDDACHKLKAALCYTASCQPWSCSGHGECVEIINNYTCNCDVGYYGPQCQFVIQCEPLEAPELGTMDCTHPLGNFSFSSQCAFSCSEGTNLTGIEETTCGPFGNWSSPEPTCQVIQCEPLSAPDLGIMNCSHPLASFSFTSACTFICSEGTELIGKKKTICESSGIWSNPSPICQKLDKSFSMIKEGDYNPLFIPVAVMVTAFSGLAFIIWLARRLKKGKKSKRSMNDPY

[2] = biological target: L-selectin (CD62L) on primary CD4+ T cells (Homo sapiens) (UniProt P14151); test: flow cytometry; conditions: random aptamer control did not bind CD4+ T cells; protein on the cell surface; protein details: endogenous, primary CD4+ T cells; single-stranded DNA
[3] = biological target: L-selectin (CD62L) in J.RT3-T3.5 membrane protein extract (Homo sapiens) (UniProt P14151); test: pull-down; conditions: biotinylated aptamer pulldown, CD62L identified by LC-MS/MS, not in biotin-saturated bead control; protein in an extract; single-stranded DNA

**Q.** Does “CCAGAGTGACGCAGCATAGTCAAGGCGATAGACGAAAAACATTGTTTTCCTGGAAGGCCCAGAATCTGTGG [CD62LApt.71]” bind ([1]; appears to retain binding, label: 5' fluorescein, variant of CD62LApt.88 (A1, L-SA.88))?
**A.** Result: binds

**Q.** Does “ATCCAGAGTGACGCAGCAAATTCCAAACTCGAGTAAGCGTAGAGCCTCTCATCGCCTCAATAATGGACACGGTGGCTTAGT [Random aptamer (RAN)]” bind [2]?
**A.** Result: no binding

**Q.** Does “CTGGGCGATAGACGAAAAACATTGTTTTCCTGGAAGGCCCAG [CD62LApt.42]” bind ([1]; high binding not observed for the 42-mer, label: 5' fluorescein, variant of CD62LApt.88 (A1, L-SA.88))?
**A.** Result: no binding

**Q.** Does “TTTTTTTTTTTTTTTTAATTTAGTCAAGGCGATAGACGAAAAACATTGTTTTCCTGGAAGGCCCAGAATCTG [CD62LApt.52.s20]” bind ([1]; affinity minimally affected by spacer, label: 5' biotin, variant of CD62LApt.52)?
**A.** Result: binds

**Q.** Does “ATCCAGAGTGACGCAGCATAGTCAAGGCGATAGACGAAAAACATTGTTTTCCTGGAAGGCCCAGAATCTGTGGACACGGTGGCTTAGT [CD62LApt.88 (A1, L-SA.88)]” bind [3]?
**A.** Result: binds
